Reference: patent publication US20150147316A1
These are yes or no findings as the source states them, for the method shown. Some entries that bind do so weakly or less than the wild type.

Sequences of proteins named here, by UniProt entry; tags and fusion partners are left off. A change or cut given only in a name is not applied to a line headed by its entry.
UniProt P20138: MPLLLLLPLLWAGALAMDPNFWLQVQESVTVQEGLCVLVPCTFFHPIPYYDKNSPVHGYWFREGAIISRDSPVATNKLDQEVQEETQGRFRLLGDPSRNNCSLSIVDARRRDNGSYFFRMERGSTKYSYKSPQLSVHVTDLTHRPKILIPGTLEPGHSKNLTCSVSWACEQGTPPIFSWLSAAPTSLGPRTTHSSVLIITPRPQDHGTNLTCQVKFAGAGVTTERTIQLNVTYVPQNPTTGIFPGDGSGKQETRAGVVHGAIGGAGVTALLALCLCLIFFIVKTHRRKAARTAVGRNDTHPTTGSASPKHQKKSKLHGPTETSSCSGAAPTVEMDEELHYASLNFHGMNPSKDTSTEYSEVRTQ

What was measured:
human CD33 (human) [1] = target: human CD33 (human) (UniProt P20138); test: EC50 binding determinations
human CD33 (human) [2] = target: human CD33 (human) (UniProt P20138); test: flow cytometry on cells expressing human CD33

binding (human CD33 (human) [1]): binds
binding (human CD33 (human) [2]): binds
B1: h2H12 antibody (2H12 HILG) (antibody, V domains shown)
VH: QVQLVQSGAEVKKPGASVKVSCKASGYTFTNYDINWVRQAPGQGLEWIGWIYPGDGSTKYNEKFKAKATLTADTSTSTAYMELRSLRSDDTAVYYCASGYEDAMDYWGQGTTVTVSS
VL: DIQMTQSPSSLSASVGDRVTINCKASQDINSYLSWFQQKPGKAPKTLIYRANRLVDGVPSRFSGSGSGQDYTLTISSLQPEDFATYYCLQYDEFPLTFGGGTKVEIK
